{"source": "the supplement of paper PMC8728848", "assay_in_all_cases": "glycan array binding signal (z-score within array); higher = stronger binding", "settings_in_all_cases": "glycan notation: IUPAC condensed, linker removed", "key": {"Fuc(a1-2)Gal": {"target": "Fuc(a1-2)Gal", "summary_of_the_method": "(§1)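 Glycan array data were curated from 3228 arrays in the Consortium for Functional Glycomics database and kept only where the protein sequence was available. Glycan names were converted to IUPAC-condensed notation, and columns mapping to the same glycan were averaged. The binding signal is a within-array Z-score, averaged across arrays of the same protein sequence at different concentrations or buffers and across linkers. Negative Z-scores can be read as non-binding.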"}, "Fuc(a1-2)Gal(b1-3)GalNAc": {"target": "Fuc(a1-2)Gal(b1-3)GalNAc", "summary_of_the_method": "as §1"}, "[1]": {"target": "Fuc(a1-2)Gal(b1-3)GalNAc(a1-3)[Fuc(a1-2)]Gal(b1-4)Glc", "summary_of_the_method": "as §1"}, "[2]": {"target": "Fuc(a1-2)Gal(b1-3)GalNAc(a1-3)[Fuc(a1-2)]Gal(b1-4)GlcNAc", "summary_of_the_method": "as §1"}, "[3]": {"target": "Fuc(a1-2)Gal(b1-3)GalNAc(b1-3)Gal", "summary_of_the_method": "as §1"}, "[4]": {"target": "Fuc(a1-2)Gal(b1-3)GalNAc(b1-3)Gal(a1-4)Gal(b1-4)Glc", "summary_of_the_method": "as §1"}, "[5]": {"target": "Fuc(a1-2)Gal(b1-3)GalNAc(b1-4)[Neu5Ac(a2-3)]Gal(b1-4)Glc", "summary_of_the_method": "as §1"}, "Fuc(a1-2)Gal(b1-3)GlcNAc": {"target": "Fuc(a1-2)Gal(b1-3)GlcNAc", "summary_of_the_method": "as §1"}, "[6]": {"target": "Fuc(a1-2)Gal(b1-3)GlcNAc(b1-2)Man(a1-3)[Fuc(a1-2)Gal(b1-3)GlcNAc(b1-2)Man(a1-6)]Man(b1-4)GlcNAc(b1-4)GlcNAc", "summary_of_the_method": "as §1"}, "[7]": {"target": "Fuc(a1-2)Gal(b1-3)GlcNAc(b1-2)Man(a1-3)[Fuc(a1-2)Gal(b1-3)GlcNAc(b1-2)Man(a1-6)]Man(b1-4)GlcNAc(b1-4)[Fuc(a1-6)]GlcNAc", "summary_of_the_method": "as §1"}, "[8]": {"target": "Fuc(a1-2)Gal(b1-3)GlcNAc(b1-3)Gal(b1-4)Glc", "summary_of_the_method": "as §1"}, "[9]": {"target": "Fuc(a1-2)Gal(b1-3)GlcNAc(b1-3)GalNAc", "summary_of_the_method": "as §1"}, "[10]": {"target": "Fuc(a1-2)Gal(b1-3)GlcNAc(b1-3)[Fuc(a1-2)Gal(b1-3)GlcNAc(b1-6)]GalNAc", "summary_of_the_method": "as §1"}, "[11]": {"target": "Fuc(a1-2)Gal(b1-3)GlcNAc(b1-3)[Gal(b1-4)GlcNAc(b1-6)]Gal(b1-4)Glc", "summary_of_the_method": "as §1"}, "[12]": {"target": "Fuc(a1-2)Gal(b1-3)GlcNAc(b1-3)[Neu5Ac(a2-6)Gal(b1-4)GlcNAc(b1-6)]Gal(b1-4)Glc", "summary_of_the_method": "as §1"}, "[13]": {"target": "Fuc(a1-2)Gal(b1-3)GlcNAc6S", "summary_of_the_method": "as §1"}, "[14]": {"target": "Fuc(a1-2)Gal(b1-3)[Fuc(a1-4)]GlcNAc", "summary_of_the_method": "as §1"}, "[15]": {"target": "Fuc(a1-2)Gal(b1-3)[Fuc(a1-4)]GlcNAc(b1-2)Man(a1-3)[Fuc(a1-2)Gal(b1-3)[Fuc(a1-4)]GlcNAc(b1-2)Man(a1-3)]Man(b1-4)GlcNAc(b1-4)GlcNAc", "summary_of_the_method": "as §1"}, "[16]": {"target": "Fuc(a1-2)Gal(b1-3)[Fuc(a1-4)]GlcNAc(b1-2)Man(a1-3)[Fuc(a1-2)Gal(b1-3)[Fuc(a1-4)]GlcNAc(b1-2)Man(a1-6)]Man(b1-4)GlcNAc(b1-4)[Fuc(a1-6)]GlcNAc(b1-4)[Fuc(a1-6)]GlcNAc", "summary_of_the_method": "as §1"}, "[17]": {"target": "Fuc(a1-2)Gal(b1-3)[Fuc(a1-4)]GlcNAc(b1-3)[Fuc(a1-3)[Gal(b1-4)]GlcNAc(b1-6)]Gal(b1-4)Glc", "summary_of_the_method": "as §1"}, "[18]": {"target": "Fuc(a1-2)Gal(b1-3)[Fuc(a1-4)]GlcNAc(b1-3)[Gal(b1-4)GlcNAc(b1-6)]Gal(b1-4)Glc", "summary_of_the_method": "as §1"}, "Fuc(a1-2)Gal(b1-4)Glc": {"target": "Fuc(a1-2)Gal(b1-4)Glc", "summary_of_the_method": "as §1"}, "Fuc(a1-2)Gal(b1-4)Glc6S": {"target": "Fuc(a1-2)Gal(b1-4)Glc6S", "summary_of_the_method": "as §1"}, "Fuc(a1-2)Gal(b1-4)GlcNAc": {"target": "Fuc(a1-2)Gal(b1-4)GlcNAc", "summary_of_the_method": "as §1"}, "[19]": {"target": "Fuc(a1-2)Gal(b1-4)GlcNAc(b1-2)Man", "summary_of_the_method": "as §1"}, "[20]": {"target": "Fuc(a1-2)Gal(b1-4)GlcNAc(b1-2)Man(a1-3)[Fuc(a1-2)Gal(b1-4)GlcNAc(b1-2)Man(a1-6)]Man(b1-4)GlcNAc(b1-4)GlcNAc", "summary_of_the_method": "as §1"}, "[21]": {"target": "Fuc(a1-2)Gal(b1-4)GlcNAc(b1-2)Man(a1-3)[Fuc(a1-2)Gal(b1-4)GlcNAc(b1-2)Man(a1-6)]Man(b1-4)GlcNAc(b1-4)[Fuc(a1-6)]GlcNAc", "summary_of_the_method": "as §1"}, "[22]": {"target": "Fuc(a1-2)Gal(b1-4)GlcNAc(b1-2)[Fuc(a1-2)Gal(b1-4)GlcNAc(b1-4)]Man(a1-3)[Fuc(a1-2)Gal(b1-4)GlcNAc(b1-2)Man(a1-6)]Man(b1-4)GlcNAc(b1-4)GlcNAc", "summary_of_the_method": "as §1"}, "[23]": {"target": "Fuc(a1-2)Gal(b1-4)GlcNAc(b1-3)Gal(b1-4)GlcNAc", "summary_of_the_method": "as §1"}, "[24]": {"target": "Fuc(a1-2)Gal(b1-4)GlcNAc(b1-3)Gal(b1-4)GlcNAc(b1-2)Man(a1-3)[Fuc(a1-2)Gal(b1-4)GlcNAc(b1-3)Gal(b1-4)GlcNAc(b1-2)Man(a1-6)]Man(b1-4)GlcNAc(b1-4)GlcNAc", "summary_of_the_method": "as §1"}, "[25]": {"target": "Fuc(a1-2)Gal(b1-4)GlcNAc(b1-3)Gal(b1-4)GlcNAc(b1-3)Gal(b1-4)GlcNAc", "summary_of_the_method": "as §1"}, "[26]": {"target": "Fuc(a1-2)Gal(b1-4)GlcNAc(b1-3)GalNAc", "summary_of_the_method": "as §1"}, "[27]": {"target": "Fuc(a1-2)Gal(b1-4)GlcNAc(b1-3)[Fuc(a1-2)Gal(b1-4)GlcNAc(b1-6)]GalNAc", "summary_of_the_method": "as §1"}, "[28]": {"target": "Fuc(a1-2)Gal(b1-4)GlcNAc(b1-3)[Fuc(a1-3)[Gal(b1-4)]GlcNAc(b1-6)]Gal(b1-4)Glc", "summary_of_the_method": "as §1"}, "[29]": {"target": "Fuc(a1-2)Gal(b1-4)GlcNAc(b1-6)GalNAc", "summary_of_the_method": "as §1"}, "[30]": {"target": "Fuc(a1-2)Gal(b1-4)GlcNAc6S", "summary_of_the_method": "as §1"}, "[31]": {"target": "Fuc(a1-2)Gal(b1-4)[Fuc(a1-3)]GlcNAc", "summary_of_the_method": "as §1"}}, "note": "The list shows a part of the results."}
{"binder": "Pwp6 (Candida glabrata) (protein) MGSSHHHHHHSSGLVPRGSHMASANLPKLTNICQIPDNVKKTSGFKGEIRRIGLFPPGGDYTYLLKFPSTGSTASDTISLTTKPQLSTSGWFPSLFGHTYFIKADLLVYMVAYFVPTETGEYTFKLVNSDDAAVMYVGNPSAFPCGSIDTWPEPRKEDINVCDKISASTKLYMEKGLAYPVRLVWYNGGGDGQFNAQFIDPSGTTHTDWNGYVWQYDACTDCDYK", "values": [{"measurement": "glycan array binding signal (z-score)", "setting": "Fuc(a1-2)Gal", "value": -0.81}, {"measurement": "glycan array binding signal (z-score)", "setting": "Fuc(a1-2)Gal(b1-3)GalNAc", "value": -0.648}, {"measurement": "glycan array binding signal (z-score)", "setting": "[1]", "value": -0.553}, {"measurement": "glycan array binding signal (z-score)", "setting": "[2]", "value": -0.296}, {"measurement": "glycan array binding signal (z-score)", "setting": "[3]", "value": -0.077}, {"measurement": "glycan array binding signal (z-score)", "setting": "[4]", "value": -0.362}, {"measurement": "glycan array binding signal (z-score)", "setting": "[5]", "value": -0.318}, {"measurement": "glycan array binding signal (z-score)", "setting": "Fuc(a1-2)Gal(b1-3)GlcNAc", "value": -0.655}, {"measurement": "glycan array binding signal (z-score)", "setting": "[6]", "value": 1.22}, {"measurement": "glycan array binding signal (z-score)", "setting": "[7]", "value": -0.04}, {"measurement": "glycan array binding signal (z-score)", "setting": "[8]", "value": -0.524}, {"measurement": "glycan array binding signal (z-score)", "setting": "[9]", "value": -0.639}, {"measurement": "glycan array binding signal (z-score)", "setting": "[10]", "value": 0.205}, {"measurement": "glycan array binding signal (z-score)", "setting": "[11]", "value": -0.03}, {"measurement": "glycan array binding signal (z-score)", "setting": "[12]", "value": -0.443}, {"measurement": "glycan array binding signal (z-score)", "setting": "[13]", "value": -0.35}, {"measurement": "glycan array binding signal (z-score)", "setting": "[14]", "value": -0.605}, {"measurement": "glycan array binding signal (z-score)", "setting": "[15]", "value": 0.391}, {"measurement": "glycan array binding signal (z-score)", "setting": "[16]", "value": 0.128}, {"measurement": "glycan array binding signal (z-score)", "setting": "[17]", "value": -0.643}, {"measurement": "glycan array binding signal (z-score)", "setting": "[18]", "value": -0.19}, {"measurement": "glycan array binding signal (z-score)", "setting": "Fuc(a1-2)Gal(b1-4)Glc", "value": -0.645}, {"measurement": "glycan array binding signal (z-score)", "setting": "Fuc(a1-2)Gal(b1-4)Glc6S", "value": -0.477}, {"measurement": "glycan array binding signal (z-score)", "setting": "Fuc(a1-2)Gal(b1-4)GlcNAc", "value": -0.848}, {"measurement": "glycan array binding signal (z-score)", "setting": "[19]", "value": -0.012}, {"measurement": "glycan array binding signal (z-score)", "setting": "[20]", "value": -0.061}, {"measurement": "glycan array binding signal (z-score)", "setting": "[21]", "value": 0.09}, {"measurement": "glycan array binding signal (z-score)", "setting": "[22]", "value": 0.242}, {"measurement": "glycan array binding signal (z-score)", "setting": "[23]", "value": -0.704}, {"measurement": "glycan array binding signal (z-score)", "setting": "[24]", "value": 1.78}, {"measurement": "glycan array binding signal (z-score)", "setting": "[25]", "value": -0.691}, {"measurement": "glycan array binding signal (z-score)", "setting": "[26]", "value": -0.476}, {"measurement": "glycan array binding signal (z-score)", "setting": "[27]", "value": 0.027}, {"measurement": "glycan array binding signal (z-score)", "setting": "[28]", "value": 0.018}, {"measurement": "glycan array binding signal (z-score)", "setting": "[29]", "value": 0.48}, {"measurement": "glycan array binding signal (z-score)", "setting": "[30]", "value": -0.814}, {"measurement": "glycan array binding signal (z-score)", "setting": "[31]", "value": -0.497}]}
